The list shows a part of the results. Further columns of the screen follow, without active or inactive calls. The list favours compounds with an active or inconclusive main result. Words in brackets tell the shape of the fitted curve; partial curves, single points and poor fits give uncertain potencies.
Assay: qHTS Assay for Modulators of Lamin A Splicing
Conditions: HeLa LMNA splicing GFP/RFP minigene ratio, 48 h
In short: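 S3 HeLa cells stably expressing lamin A-EGFP splicing minigene plus DsRed2, 600 cells/well, 48 h compound exposure at 37C. Laser-scanning cytometry; analysed as GFP (500-530 nm)/RFP (575-640 nm) total intensity ratio; 0.5% DMSO vehicle.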

[1] = measured here: GFP splicing reporter channel
[2] = measured here: RFP viability control channel

Row | SMILES | AC50 [1] | AC50 [2]
1 | CCN(C(=O)c1ccc2c(c1)N(Cc1cccc(Cl)c1)C(=O)c1ccccc1S2=O)c1ccccc1 (configuration not stated) | 31.6 µM [rising, single point] | –
2 | COc1ccc(-c2noc(CCCOc3ccccc3)n2)cc1OC | – | 3.16 µM [rising, partial curve]
3 | Cc1c(NC(=O)COC(=O)C(c2ccc(Cl)cc2)C(C)C)c(=O)n(-c2ccccc2)n1C (configuration not stated) | 10 µM [rising, partial curve] | 12.6 µM [rising, partial curve]
4 | COc1cccc(CNC(=O)CCl)c1 | 20 µM [falling, partial curve, poor fit] | –
5 | C/C=C/c1ccc(OCCCCOc2ccc(OC)cc2)c(OC)c1 | – | 35.5 µM [rising, single point]
6 | Cc1ccc(C)c(CSc2nc3c([nH]c4ccccc43)c(=O)n2C)c1 | 1 µM [falling, full curve, poor fit] | 0.0398 µM [falling, full curve, poor fit]
7 | COc1ccc(/C=N/NC(=O)CN(CCc2ccccc2)S(=O)(=O)c2ccc(NC(C)=O)cc2)cc1OC | – | 17.8 µM [rising, single point]
8 | O=C(CSCc1ccc(Cl)cc1)N/N=C/c1ccc(Cl)cc1Cl | – | 17.8 µM [rising, single point]
9 | COc1ccc(-c2cc(C(F)(F)F)n3ncc(C(=O)N4CCc5ccccc5C4)c3n2)cc1 | 20 µM [rising, single point] | 35.5 µM [rising, single point]
10 | CC(=O)C1=C(C)NC(SCC(=O)c2ccc(Cl)cc2)=C(C#N)C1c1ccco1 (configuration not stated) | 12.6 µM [rising, partial curve] | 25.1 µM [rising, single point]
11 | O=[N+]([O-])c1cccc2ccc(/C=C/c3ccc(Cl)cc3)nc12 | 11.2 µM [rising, partial curve] | 12.6 µM [rising, partial curve, poor fit]
12 | Cc1nc2ccc(S(=O)(=O)Nc3ccccc3C)cc2s1 | – | 12.6 µM [rising, partial curve]
13 | CCOC(=O)N1CCC(Nc2c(N3CCN(c4cccc(C(F)(F)F)c4)CC3)c(=O)c2=O)CC1 | 17.8 µM [rising, partial curve, poor fit] | 35.5 µM [rising, single point]
14 | COc1cccc(/C=C/C(=O)c2ccc(NS(=O)(=O)c3ccc(C)cc3)cc2)c1 | 15.8 µM [falling, single point] | 31.6 µM [falling, single point]
15 | Cc1ccc(S(=O)(=O)N2c3ccccc3OCC2C(C)(C)C)cc1 (configuration not stated) | – | 31.6 µM [rising, single point]
16 | Cc1ccsc1C(=O)NNC(=O)C1C2C=CC(C2)C1C(=O)O (configuration not stated) | 0.00501 µM [falling, full curve, poor fit] | 0.00501 µM [falling, full curve, poor fit]

Retrieved one by one from the entries so far (3):
Row | SMILES | AC50 [1] | AC50 [2]
8 | O=C(CSCc1ccc(Cl)cc1)N/N=C/c1ccc(Cl)cc1Cl | – | 17.8 µM [rising, single point]
16 | Cc1ccsc1C(=O)NNC(=O)C1C2C=CC(C2)C1C(=O)O (configuration not stated) | 0.00501 µM [falling, full curve, poor fit] | 0.00501 µM [falling, full curve, poor fit]
2 | COc1ccc(-c2noc(CCCOc3ccccc3)n2)cc1OC | – | 3.16 µM [rising, partial curve]

Continued.

Row | SMILES | AC50 [1] | AC50 [2]
17 | CC1CCC(NC(=O)CN2CCCN(Cc3ccc(F)cc3Cl)C2=O)CC1 (configuration not stated) | 4.47 µM [rising, partial curve] | 11.2 µM [rising, partial curve]
18 | CCOc1ccc(-n2c(=O)c3sccc3n(Cc3cccc([N+](=O)[O-])c3)c2=O)cc1 | – | 0.01 µM [rising, full curve, poor fit]
19 | COC(=O)c1cc([N+](=O)[O-])ccc1N1CCN(Cc2ccccc2)CC1 | – | 0.708 µM [rising, full curve, poor fit]
20 | O=C(NNC1=C(C(=O)C(F)(F)F)CCC1)c1ccc(Br)cc1 | – | 35.5 µM [rising, single point]
21 | O=C(Nc1nnc(C2CC2)s1)C1Cc2ccccc2CN1S(=O)(=O)c1cccs1 (configuration not stated) | 12.6 µM [rising, single point] | –
22 | c1ccc(CSc2nnc(NC3=NCCCCC3)s2)cc1 | 14.1 µM [rising, single point] | 22.4 µM [rising, partial curve]
23 | O=C(Nc1ccccc1)C1=C(O)CC(c2ccc(Cl)cc2)N2CCN=C12 (configuration not stated) | 35.5 µM [rising, single point] | –
24 | CCCCc1nn2c(=O)cc(COC(=O)c3cccc(NC(=O)COc4ccccc4)c3)nc2s1 | 0.0282 µM [rising, full curve, poor fit] | –
25 | Cc1cccc(/C(N)=N/OC(=O)c2ccccc2Cl)c1 | 6.31 µM [rising, single point] | 3.55 µM [rising, single point]
26 | O=C(NC1CCCCCC1)C1CCN(C(=O)N2CCOc3ccc(Cl)cc32)CC1 | 22.4 µM [rising, partial curve, poor fit] | 14.1 µM [rising, partial curve]
27 | CN1/C(=C\C(=O)c2cccc(S(=O)(=O)N3CCCCC3)c2)C(C)(C)c2ccccc21 | 10 µM [rising, partial curve, poor fit] | 10 µM [rising, partial curve]
28 | Cc1cc(Br)c(NC(=O)COC(=O)CSc2nnc(-c3ccc(Cl)cc3)o2)c(Br)c1 | 12.6 µM [rising, partial curve, poor fit] | –
29 | COc1ccc(N(CC(=O)Nc2cccc(C)c2C)S(=O)(=O)c2c(C)n[nH]c2C)cc1 | – | 1.78 µM [falling, partial curve]
30 | CCC(C)CCCCC(=O)NC(CCN)C(=O)NC(C(=O)NC(CCN)C(=O)NC1CCNC(=O)C(C(C)O)NC(=O)C(CCN)NC(=O)C(CCN)NC(=O)C(CC(C)C)NC(=O)C(Cc2ccccc2)NC(=O)C(CCN)NC1=O)C(C)O (configuration not stated) | 0.0126 µM [falling, full curve, poor fit] | 0.000794 µM [rising, full curve, poor fit]
31 | CCOCCCNC(=O)c1ccc2c(c1)NC(=O)C(CS(=O)(=O)Cc1ccc(F)cc1Cl)N2 (configuration not stated) | 1.26 µM [falling, full curve, poor fit] | 0.355 µM [falling, full curve, poor fit]
32 | Cc1cc2[nH]c(=O)c(=O)[nH]c2cc1S(=O)(=O)NCc1ccc(F)cc1 | – | 35.5 µM [falling, single point]

Source: PubChem BioAssay AID1487 (National Center for Advancing Translational Sciences (NCATS), 2009)
